Measurements published in paper PMC11420289, “IBR1, a novel endogenous IFIH1‐binding dsRNA, governs IFIH1 activation and M1 macrophage polarisation in ARDS”.

Tests used:
IFIH1-M1-Flag (CARD) = target: T1, IFIH1-M1-Flag (CARD) (UniProt Q8R5F7); assay: EMSA; details: 0.1 pmol RNA, 30 pmol protein, ADPCP 2 mM; EMSA: 20 mM HEPES pH 7.5, 150 mM NaCl, 1.5 mM MgCl2, 2 mM DTT, 10 min at room temperature, BisTris native gel; recombinant protein; residues 7-190; protein details: Flag, His; label: 5' and 3' biotin (C6)
T1 sequence (looked up): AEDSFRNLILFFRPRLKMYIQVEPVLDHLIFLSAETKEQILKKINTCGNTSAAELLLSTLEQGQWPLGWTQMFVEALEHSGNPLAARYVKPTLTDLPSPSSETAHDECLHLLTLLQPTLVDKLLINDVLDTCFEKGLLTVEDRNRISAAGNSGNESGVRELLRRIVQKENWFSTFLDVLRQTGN

[1] = target: T2, IFIH1-M2-Flag (helicase domain) (UniProt Q8R5F7); assay: EMSA; details: 0.1 pmol RNA, 30 pmol protein, ADPCP 2 mM; EMSA: 20 mM HEPES pH 7.5, 150 mM NaCl, 1.5 mM MgCl2, 2 mM DTT, 10 min at room temperature, BisTris native gel; recombinant protein; residues 317-872; protein details: Flag, His; label: 5' and 3' biotin (C6)
T2 sequence (looked up): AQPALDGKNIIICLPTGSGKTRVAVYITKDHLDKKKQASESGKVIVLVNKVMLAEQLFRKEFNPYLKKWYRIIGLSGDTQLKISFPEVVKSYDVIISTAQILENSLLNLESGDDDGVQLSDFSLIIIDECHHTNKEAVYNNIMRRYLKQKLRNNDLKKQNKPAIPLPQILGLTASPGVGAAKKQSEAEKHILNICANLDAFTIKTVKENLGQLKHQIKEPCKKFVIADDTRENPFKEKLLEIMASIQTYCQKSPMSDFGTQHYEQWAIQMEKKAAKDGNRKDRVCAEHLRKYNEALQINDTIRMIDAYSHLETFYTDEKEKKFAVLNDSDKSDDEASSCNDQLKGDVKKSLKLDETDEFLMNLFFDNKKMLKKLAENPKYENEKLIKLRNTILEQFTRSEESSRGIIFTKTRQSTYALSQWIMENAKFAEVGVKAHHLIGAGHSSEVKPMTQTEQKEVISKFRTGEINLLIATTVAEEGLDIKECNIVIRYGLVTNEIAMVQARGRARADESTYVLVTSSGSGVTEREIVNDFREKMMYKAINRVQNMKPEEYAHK

IFIH1-M3-Flag (CTD) = target: T3, IFIH1-M3-Flag (CTD) (UniProt Q8R5F7); assay: EMSA; details: 0.1 pmol RNA, 30 pmol protein, ADPCP 2 mM; EMSA: 20 mM HEPES pH 7.5, 150 mM NaCl, 1.5 mM MgCl2, 2 mM DTT, 10 min at room temperature, BisTris native gel; recombinant protein; residues 893-1020; protein details: Flag, His; label: 5' and 3' biotin (C6)
T3 sequence (looked up): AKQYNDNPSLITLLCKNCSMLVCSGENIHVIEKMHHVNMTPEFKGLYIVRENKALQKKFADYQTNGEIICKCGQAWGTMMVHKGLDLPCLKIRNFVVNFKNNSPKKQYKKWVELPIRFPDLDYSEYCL

IFIH1-WT-Flag = target: T4, IFIH1-WT-Flag (UniProt Q8R5F7); assay: EMSA; details: 0.1 pmol RNA, 30 pmol protein, ADPCP 2 mM; EMSA: 20 mM HEPES pH 7.5, 150 mM NaCl, 1.5 mM MgCl2, 2 mM DTT, 10 min at room temperature, BisTris native gel; recombinant protein; residues 1-1025; protein details: Flag, His; label: 5' and 3' biotin (C6)
T4 sequence (looked up): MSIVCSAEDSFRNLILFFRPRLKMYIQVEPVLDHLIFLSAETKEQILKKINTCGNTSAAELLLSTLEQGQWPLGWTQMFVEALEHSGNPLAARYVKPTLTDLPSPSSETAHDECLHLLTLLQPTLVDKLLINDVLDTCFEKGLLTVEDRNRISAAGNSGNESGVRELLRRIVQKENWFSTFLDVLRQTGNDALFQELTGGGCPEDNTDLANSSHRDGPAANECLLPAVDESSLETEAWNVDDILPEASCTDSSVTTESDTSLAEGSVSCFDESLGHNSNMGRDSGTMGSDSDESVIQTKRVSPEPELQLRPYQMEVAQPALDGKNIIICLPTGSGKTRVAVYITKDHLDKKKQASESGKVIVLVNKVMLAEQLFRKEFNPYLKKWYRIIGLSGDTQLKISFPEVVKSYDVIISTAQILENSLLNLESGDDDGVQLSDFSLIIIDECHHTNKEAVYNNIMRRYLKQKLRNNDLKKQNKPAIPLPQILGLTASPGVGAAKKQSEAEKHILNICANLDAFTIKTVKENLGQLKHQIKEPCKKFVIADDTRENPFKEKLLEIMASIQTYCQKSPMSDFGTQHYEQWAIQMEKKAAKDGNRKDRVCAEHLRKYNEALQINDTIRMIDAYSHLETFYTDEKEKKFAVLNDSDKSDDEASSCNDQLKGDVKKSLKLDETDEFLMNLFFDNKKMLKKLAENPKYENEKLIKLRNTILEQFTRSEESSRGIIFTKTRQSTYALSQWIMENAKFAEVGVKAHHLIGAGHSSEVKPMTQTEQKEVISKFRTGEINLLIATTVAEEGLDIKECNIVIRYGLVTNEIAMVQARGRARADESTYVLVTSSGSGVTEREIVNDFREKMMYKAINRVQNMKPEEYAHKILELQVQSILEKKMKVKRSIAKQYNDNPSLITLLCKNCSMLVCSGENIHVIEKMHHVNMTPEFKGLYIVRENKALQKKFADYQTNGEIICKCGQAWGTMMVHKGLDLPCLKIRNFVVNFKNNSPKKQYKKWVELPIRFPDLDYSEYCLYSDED

[2] = target: T5, IFIH1 (endogenous, BMDM lysate) (Mus musculus) (UniProt Q8R5F7); assay: pull-down; details: 6 ug biotin-RNA, Western blot, protein in an extract, label: 5' and 3' biotin (C6)
T5 sequence (looked up, limits assumed): T4 sequence (looked up)

“UGUAUUUUCUCCUUAUAAUCACUCCCUCCCGGGGCAUGUAAUUAAUUUCCUGAUGGAUUACUCACACGGUCUUGAAGAUGCAAUGUCAGCUAUUUAGGCUGUGCUAGGACUCAAUUACAACAACAUAUGCAUUAAGACAGGAACUGGCAAGCCGGGACUACAGCAACUACAGGGCUGGUGCUUCCCAACCGCUGGGCUAUAAUCUAUGAAACUGAGCCGGGAUCCAGCCAAUCAGUUAGCUAGCUCCUCAUAACAGGUCUAACUGGCUCUGGACAGCUAAGGGCUGCGCUGGAACGUUCCAGCGCAGCCCUUA [IBR1-WT (biotin)]”: no binding (IFIH1-M1-Flag (CARD)); binds [1]; no binding (IFIH1-M3-Flag (CTD)). “UGUAUUUUCUCCUUAUAAUCACUCCCUCCCGGGGCAUGUAAUUAAUUUCCUGAUGGAUUACUCACACGGUCUUGAAGAUGCAAUGUCAGCUAUUUAGGCUGUGCUAGGACUCAAUUACAACAACAUAUGCAUUAAGACAGGAACUGGCAAGCCGGGACUACAGCAACUACAGGGCUGGUGCUUCCCAACCGCUGGGCUAUAAUCUAUGAAACUGAGCCGGGAUCCAGCCAAUCAGUUAGCUAGCUCCUCAUAACAGGUCUAACUGGCUCUGGACAGCUAAGGGCUGCGCUGGAACGUUCCAGCGCAGCCCUUA [IBR1-WT (biotin)]”: binds (IFIH1-WT-Flag); binds [2].

For some assays here: A negative result means that nothing was seen under these conditions. For some assays here: At least one verdict was read from the data and is not stated in words by the source. Where a protein sequence is shown, tags need not be part of it. For some assays here: For at least one entry, the source does not settle the construct or the ends of the probe. For some assays here: At least one result comes from cells or an extract, where the contact may be indirect.
